Source: article PMC9424261
These are yes or no findings as the source states them, for the method shown. In cells and extracts the contact can be indirect. Some binding calls cover weakened binding; strength is not graded here.

Amino acid sequences for entries named in this document (tags omitted).
UniProt Q86TM6: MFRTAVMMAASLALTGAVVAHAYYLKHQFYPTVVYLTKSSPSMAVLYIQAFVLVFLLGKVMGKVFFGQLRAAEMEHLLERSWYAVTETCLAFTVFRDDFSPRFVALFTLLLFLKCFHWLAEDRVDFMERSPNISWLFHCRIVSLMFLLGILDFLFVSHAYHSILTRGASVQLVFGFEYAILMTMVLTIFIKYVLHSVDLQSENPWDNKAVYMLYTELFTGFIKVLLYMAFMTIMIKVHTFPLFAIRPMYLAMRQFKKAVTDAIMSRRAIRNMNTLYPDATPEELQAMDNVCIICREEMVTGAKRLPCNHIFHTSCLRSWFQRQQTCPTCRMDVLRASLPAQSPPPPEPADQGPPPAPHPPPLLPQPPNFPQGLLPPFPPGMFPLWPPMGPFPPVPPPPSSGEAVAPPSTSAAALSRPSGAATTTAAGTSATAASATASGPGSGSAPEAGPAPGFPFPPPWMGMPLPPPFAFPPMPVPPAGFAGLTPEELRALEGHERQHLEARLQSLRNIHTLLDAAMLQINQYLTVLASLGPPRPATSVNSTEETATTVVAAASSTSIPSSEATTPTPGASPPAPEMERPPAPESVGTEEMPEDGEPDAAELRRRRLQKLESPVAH
UniProt Q00987: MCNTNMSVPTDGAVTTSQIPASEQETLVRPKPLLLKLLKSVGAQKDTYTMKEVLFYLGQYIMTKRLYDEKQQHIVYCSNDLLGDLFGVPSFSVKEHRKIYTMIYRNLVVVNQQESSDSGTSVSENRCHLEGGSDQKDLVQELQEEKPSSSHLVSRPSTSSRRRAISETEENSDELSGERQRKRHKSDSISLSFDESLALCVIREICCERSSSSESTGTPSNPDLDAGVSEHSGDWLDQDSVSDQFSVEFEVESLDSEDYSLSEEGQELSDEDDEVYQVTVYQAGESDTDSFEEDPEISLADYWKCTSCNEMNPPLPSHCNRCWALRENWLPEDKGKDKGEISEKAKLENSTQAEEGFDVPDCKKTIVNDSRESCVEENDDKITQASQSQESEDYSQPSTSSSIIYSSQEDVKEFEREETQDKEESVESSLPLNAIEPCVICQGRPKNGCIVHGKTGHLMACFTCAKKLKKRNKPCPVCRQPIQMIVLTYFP

How the values were obtained:
[1] = biological target: T1, glutathione synthetase (GSS) (human (endogenous in Bel-7402 and Bel-7404)) (UniProt P48637); experiment: co-IP; reciprocal IP of endogenous proteins from lysates of Bel-7402 and Bel-7404 cells, wild-type or with HERPUD1 overexpressed; antibody overnight at 4 °C, protein A/G beads, immunoblot
T1 sequence: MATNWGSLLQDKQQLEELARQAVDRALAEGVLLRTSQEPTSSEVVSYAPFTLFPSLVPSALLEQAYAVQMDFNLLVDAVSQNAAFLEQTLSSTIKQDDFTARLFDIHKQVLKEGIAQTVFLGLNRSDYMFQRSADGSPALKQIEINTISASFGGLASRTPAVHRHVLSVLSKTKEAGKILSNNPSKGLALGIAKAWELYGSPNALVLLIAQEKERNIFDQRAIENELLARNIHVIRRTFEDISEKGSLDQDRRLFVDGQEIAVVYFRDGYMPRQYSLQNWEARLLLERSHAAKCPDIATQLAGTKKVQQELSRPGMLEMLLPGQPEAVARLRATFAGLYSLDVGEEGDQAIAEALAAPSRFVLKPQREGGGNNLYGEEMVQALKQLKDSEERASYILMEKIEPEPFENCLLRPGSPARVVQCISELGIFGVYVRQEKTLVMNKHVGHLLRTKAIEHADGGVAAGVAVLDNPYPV

[2] = biological target: T1, glutathione synthetase (GSS) (human (endogenous in Bel-7402 and Bel-7404)); experiment: co-IP; co-IP from tissue of Bel-7402 xenograft tumors of nude mice, immunoblot

| binding [1] | binding [2] | Substance |
| --- | --- | --- |
| no binding |  | SYVN1 (from UniProt Q86TM6 1-617) (enzyme) |
| binds | binds | murine double minute 2 (MDM2) (from UniProt Q00987 1-491) (enzyme) |
